No constants are given. Whether binding was seen depends on the method and setting. Binding seen in cells or lysates may run through a third protein. Some results given as binding are weak or reduced against the parent protein; the word gives no strength.
Target: T1, ID3 protein (human (endogenous in TPC cells)) (UniProt Q02535)
T1 sequence: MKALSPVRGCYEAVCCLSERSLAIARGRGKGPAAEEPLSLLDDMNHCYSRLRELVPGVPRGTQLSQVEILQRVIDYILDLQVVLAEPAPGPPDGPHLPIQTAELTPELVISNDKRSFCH
Assay: co-IP; lysate of TPC cells in IP lysis buffer without SDS; precipitated with 1 ug ID3 antibody or IgG at 4 °C overnight, Protein A agarose 4 °C 2 h; immunoblotting; endogenous proteins

B1: E47 protein (protein, UniProt P15923-2 1-651)
chain: MNQPQRMAPVGTDKELSDLLDFSMMFPLPVTNGKGRPASLAGAQFGGSGLEDRPSSGSWGSGDQSSSSFDPSRTFSEGTHFTESHSSLSSSTFLGPGLGGKSGERGAYASFGRDAGVGGLTQAGFLSGELALNSPGPLSPSGMKGTSQYYPSYSGSSRRRAADGSLDTQPKKVRKVPPGLPSSVYPPSSGEDYGRDATAYPSAKTPSSTYPAPFYVADGSLHPSAELWSPPGQAGFGPMLGGGSSPLPLPPGSGPVGSSGSSSTFGGLHQHERMGYQLHGAEVNGGLPSASSFSSAPGATYGGVSSHTPPVSGADSLLGSRGTTAGSSGDALGKALASIYSPDHSSNNFSSSPSTPVGSPQGLAGTSQWPRAGAPGALSPSYDGGLHGLQSKIEDHLDEAIHVLRSHAVGTAGDMHTLLPGHGALASGFTGPMSLGGRHAGLVGGSHPEDGLAGSTSLMHNHAALPSQPGTLPDLSRPPDSYSGLGRAGATAAASEIKREEKEDEENTSAADHSEEEKKELKAPRARTSSTDEVLSLEEKDLRDRERRMANNARERVRVRDINEAFRELGRMCQMHLKSDKAQTKLLILQQAVQVILGLEQQVRERNLNPKAACLKRREEEKVSGVVGDPQMVLSAPHPGLSEAHNPAGHM
Question: B1 was tested. Which binding did it give?
Answer: binds
